This is an account of results in PMC11729338, “Molecular Characterization and Interaction between Human VEGF-D and VEGFR-3” (Journal of Microbiology and Biotechnology, 2024).

Sequences of proteins named here, by UniProt entry; tags and fusion partners are left off. A change or cut given only in a name is not applied to a line headed by its entry. A line that says so, or that is headed by a name, gives the form on record, which may keep a tag or linker. Residues count along the entry.
GST-tagged VEGF-D (residues 89-205) D103A (O43915, form named): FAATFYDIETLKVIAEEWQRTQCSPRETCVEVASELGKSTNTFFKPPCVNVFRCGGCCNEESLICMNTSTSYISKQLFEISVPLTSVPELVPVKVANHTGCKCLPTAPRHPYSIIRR
GST-tagged VEGF-D (residues 89-205) Q110A (O43915, form named): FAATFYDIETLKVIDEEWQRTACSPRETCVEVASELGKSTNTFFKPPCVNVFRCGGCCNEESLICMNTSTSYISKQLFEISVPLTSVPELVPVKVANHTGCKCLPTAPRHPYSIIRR
UniProt P35916, residues 30-326: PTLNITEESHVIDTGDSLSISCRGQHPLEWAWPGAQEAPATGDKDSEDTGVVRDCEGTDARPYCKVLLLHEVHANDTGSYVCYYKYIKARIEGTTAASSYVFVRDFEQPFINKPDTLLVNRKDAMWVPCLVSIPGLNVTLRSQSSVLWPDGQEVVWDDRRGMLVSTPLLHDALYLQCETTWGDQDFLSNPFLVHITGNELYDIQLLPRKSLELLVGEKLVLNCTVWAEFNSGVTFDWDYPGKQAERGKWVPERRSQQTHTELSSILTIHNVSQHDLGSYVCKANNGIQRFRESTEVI

These are yes or no findings as the source states them, for the method shown. Some results given as binding are weak or reduced against the parent protein; the word gives no strength.

Test [1] deals with GST-tagged VEGF-D (residues 89-205) D103A (human) (UniProt O43915). Nature of the test: pull-down; 50 ug GST-tagged VEGF-D or mutant on Glutathione Sepharose 4 Fast Flow beads, 50 ug His-VEGFR-3 in 1X PBS, on ice overnight; eluted with 30 mM glutathione; Western blot with anti-His and anti-GST; both purified. On the technique in general: Immunoblotting shows a protein as a band on a membrane.

Test [2] addresses GST-tagged VEGF-D (residues 89-205) Q110A (human) (UniProt O43915). Described as above.

Consider “His-tagged VEGFR-3 (residues 30-326) (from UniProt P35916 30-326) (receptor)”, for which the binding result in test [1] and in test [2] was “binds weakly” throughout.
